Results: PMC7828477, “Synthesis and Evaluation of Novel Iminosugars Prepared from Natural Amino Acids” (Molecules, 2021)
Structures can show the parent of a compound that is named as a salt.

Assays:
[1] = test system: T1, β-glucosidase from Almonds; assay: p-nitrophenyl glycoside hydrolysis, A405, […] min; type: biochemical, Prunus dulcis; settings: 5000 µM; inhibition; 1 mM p-nitrophenyl beta-D-glucopyranoside, 20 mM Na2HPO4 pH 7.3, 37 °C
T1 construct: gene almond beta-glucosidase

[2] = test system: β-mannosidase from Helix pomatia; assay: p-nitrophenyl glycoside hydrolysis, A405, […] min; type: biochemical; settings: 5000 µM; activation; 1 mM p-nitrophenyl beta-D-mannopyranoside, 20 mM NaH2PO4 pH 5.5, 37 °C

C[C@@H]1NC[C@H]2[C@@H](CO)[C@H]2[C@H]1O [6c, (1S,4S,5R,6S,7R)-7-(hydroxymethyl)-4-methyl-3-azabicyclo[4.1.0]heptan-5-ol]
β-Glc [1]: 43%

O=C(O)[C@H]1[C@@H]2CN[C@@H](CO)[C@@H](O)[C@@H]21 [10a, (1R,4S,5S,6S,7S)-7-carboxy-5-hydroxy-4-(hydroxymethyl)-3-azabicyclo[4.1.0]heptan-3-ium trifluoroacetate]
β-Man [2]: 155%

C[C@@H]1NC[C@H]2[C@H](CO)[C@H]2[C@H]1O [6b, (1S,4S,5R,6S,7S)-7-(hydroxymethyl)-4-methyl-3-azabicyclo[4.1.0]heptan-5-ol]
β-Man [2]: 148%

O=C(O)[C@@H]1[C@@H]2CN[C@@H](CO)[C@@H](O)[C@@H]21 [10b, (1R,4S,5S,6S,7R)-7-carboxy-5-hydroxy-4-(hydroxymethyl)-3-azabicyclo[4.1.0]heptan-3-ium trifluoroacetate]
β-Glc [1]: 39%
